No constants are given. Whether binding was seen depends on the method and setting. In cells and extracts the contact can be indirect. These calls come from enrichment with a bait or labelling near it, and not all partners need be listed. For part of these data: Sequences can lack the tags named with a protein.
T1: CFP-1::GFP (C. elegans) (UniProt Q9XUE7)
T1 sequence: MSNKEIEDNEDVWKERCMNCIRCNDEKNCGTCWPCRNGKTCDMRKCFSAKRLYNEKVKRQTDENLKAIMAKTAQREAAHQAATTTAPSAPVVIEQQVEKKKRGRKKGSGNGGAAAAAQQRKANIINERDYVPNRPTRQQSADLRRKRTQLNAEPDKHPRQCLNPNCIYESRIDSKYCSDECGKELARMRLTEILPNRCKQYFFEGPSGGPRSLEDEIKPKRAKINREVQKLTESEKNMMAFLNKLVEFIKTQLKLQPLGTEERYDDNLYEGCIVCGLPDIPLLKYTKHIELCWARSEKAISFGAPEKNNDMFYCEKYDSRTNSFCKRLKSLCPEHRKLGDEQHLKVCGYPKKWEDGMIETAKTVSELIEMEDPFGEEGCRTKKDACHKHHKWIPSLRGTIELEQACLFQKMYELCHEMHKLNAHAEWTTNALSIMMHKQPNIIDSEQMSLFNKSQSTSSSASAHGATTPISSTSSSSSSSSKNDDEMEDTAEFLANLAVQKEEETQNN

Amino acid sequences for entries named in this document (tags omitted).
UniProt Q17963: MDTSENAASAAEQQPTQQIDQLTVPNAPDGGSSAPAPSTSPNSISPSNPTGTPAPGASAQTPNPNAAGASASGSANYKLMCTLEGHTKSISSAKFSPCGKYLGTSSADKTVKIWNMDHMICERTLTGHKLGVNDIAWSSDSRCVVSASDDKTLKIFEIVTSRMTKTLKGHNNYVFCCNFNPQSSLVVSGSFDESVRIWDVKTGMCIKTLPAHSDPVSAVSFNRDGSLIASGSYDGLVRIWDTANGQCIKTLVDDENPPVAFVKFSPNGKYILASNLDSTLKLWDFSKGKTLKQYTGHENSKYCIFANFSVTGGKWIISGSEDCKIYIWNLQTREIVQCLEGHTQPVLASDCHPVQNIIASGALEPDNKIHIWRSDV
UniProt A5JYW9: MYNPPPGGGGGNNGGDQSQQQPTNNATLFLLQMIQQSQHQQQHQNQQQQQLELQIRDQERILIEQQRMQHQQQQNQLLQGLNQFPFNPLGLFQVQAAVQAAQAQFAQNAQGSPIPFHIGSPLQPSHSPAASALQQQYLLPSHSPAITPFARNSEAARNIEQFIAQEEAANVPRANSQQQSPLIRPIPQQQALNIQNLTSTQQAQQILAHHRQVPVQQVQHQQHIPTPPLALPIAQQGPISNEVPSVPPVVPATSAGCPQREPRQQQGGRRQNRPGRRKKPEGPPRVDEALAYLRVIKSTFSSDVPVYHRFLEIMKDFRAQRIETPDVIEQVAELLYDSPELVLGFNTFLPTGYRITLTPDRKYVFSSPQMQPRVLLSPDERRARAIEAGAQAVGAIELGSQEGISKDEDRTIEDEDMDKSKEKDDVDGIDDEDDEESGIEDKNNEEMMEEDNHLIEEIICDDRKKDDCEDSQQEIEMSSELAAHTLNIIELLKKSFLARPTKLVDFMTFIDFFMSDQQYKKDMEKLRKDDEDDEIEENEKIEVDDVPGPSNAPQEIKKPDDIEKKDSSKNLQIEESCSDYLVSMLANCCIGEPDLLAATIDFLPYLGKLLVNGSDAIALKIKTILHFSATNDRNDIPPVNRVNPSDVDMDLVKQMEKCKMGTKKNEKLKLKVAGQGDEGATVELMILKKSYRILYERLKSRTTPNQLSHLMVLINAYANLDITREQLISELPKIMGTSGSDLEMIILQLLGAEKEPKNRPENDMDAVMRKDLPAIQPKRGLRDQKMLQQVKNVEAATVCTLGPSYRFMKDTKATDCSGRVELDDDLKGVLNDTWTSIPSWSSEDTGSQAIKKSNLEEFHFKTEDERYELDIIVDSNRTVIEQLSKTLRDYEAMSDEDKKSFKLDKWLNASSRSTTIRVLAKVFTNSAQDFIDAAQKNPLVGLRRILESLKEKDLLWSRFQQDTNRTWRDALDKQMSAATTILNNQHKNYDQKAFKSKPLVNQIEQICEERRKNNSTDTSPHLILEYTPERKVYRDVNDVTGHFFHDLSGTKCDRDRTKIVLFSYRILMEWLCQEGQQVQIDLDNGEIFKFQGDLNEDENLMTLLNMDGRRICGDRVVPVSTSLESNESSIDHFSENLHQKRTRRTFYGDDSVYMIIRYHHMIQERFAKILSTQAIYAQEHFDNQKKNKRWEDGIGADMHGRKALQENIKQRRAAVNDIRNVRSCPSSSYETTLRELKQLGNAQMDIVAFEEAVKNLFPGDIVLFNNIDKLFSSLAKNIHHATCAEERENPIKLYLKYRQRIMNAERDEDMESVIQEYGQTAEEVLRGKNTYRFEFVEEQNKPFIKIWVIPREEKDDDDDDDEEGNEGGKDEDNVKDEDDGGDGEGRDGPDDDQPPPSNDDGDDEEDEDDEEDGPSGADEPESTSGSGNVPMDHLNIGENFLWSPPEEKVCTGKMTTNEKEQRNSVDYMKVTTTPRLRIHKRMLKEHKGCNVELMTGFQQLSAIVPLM
UniProt Q18221: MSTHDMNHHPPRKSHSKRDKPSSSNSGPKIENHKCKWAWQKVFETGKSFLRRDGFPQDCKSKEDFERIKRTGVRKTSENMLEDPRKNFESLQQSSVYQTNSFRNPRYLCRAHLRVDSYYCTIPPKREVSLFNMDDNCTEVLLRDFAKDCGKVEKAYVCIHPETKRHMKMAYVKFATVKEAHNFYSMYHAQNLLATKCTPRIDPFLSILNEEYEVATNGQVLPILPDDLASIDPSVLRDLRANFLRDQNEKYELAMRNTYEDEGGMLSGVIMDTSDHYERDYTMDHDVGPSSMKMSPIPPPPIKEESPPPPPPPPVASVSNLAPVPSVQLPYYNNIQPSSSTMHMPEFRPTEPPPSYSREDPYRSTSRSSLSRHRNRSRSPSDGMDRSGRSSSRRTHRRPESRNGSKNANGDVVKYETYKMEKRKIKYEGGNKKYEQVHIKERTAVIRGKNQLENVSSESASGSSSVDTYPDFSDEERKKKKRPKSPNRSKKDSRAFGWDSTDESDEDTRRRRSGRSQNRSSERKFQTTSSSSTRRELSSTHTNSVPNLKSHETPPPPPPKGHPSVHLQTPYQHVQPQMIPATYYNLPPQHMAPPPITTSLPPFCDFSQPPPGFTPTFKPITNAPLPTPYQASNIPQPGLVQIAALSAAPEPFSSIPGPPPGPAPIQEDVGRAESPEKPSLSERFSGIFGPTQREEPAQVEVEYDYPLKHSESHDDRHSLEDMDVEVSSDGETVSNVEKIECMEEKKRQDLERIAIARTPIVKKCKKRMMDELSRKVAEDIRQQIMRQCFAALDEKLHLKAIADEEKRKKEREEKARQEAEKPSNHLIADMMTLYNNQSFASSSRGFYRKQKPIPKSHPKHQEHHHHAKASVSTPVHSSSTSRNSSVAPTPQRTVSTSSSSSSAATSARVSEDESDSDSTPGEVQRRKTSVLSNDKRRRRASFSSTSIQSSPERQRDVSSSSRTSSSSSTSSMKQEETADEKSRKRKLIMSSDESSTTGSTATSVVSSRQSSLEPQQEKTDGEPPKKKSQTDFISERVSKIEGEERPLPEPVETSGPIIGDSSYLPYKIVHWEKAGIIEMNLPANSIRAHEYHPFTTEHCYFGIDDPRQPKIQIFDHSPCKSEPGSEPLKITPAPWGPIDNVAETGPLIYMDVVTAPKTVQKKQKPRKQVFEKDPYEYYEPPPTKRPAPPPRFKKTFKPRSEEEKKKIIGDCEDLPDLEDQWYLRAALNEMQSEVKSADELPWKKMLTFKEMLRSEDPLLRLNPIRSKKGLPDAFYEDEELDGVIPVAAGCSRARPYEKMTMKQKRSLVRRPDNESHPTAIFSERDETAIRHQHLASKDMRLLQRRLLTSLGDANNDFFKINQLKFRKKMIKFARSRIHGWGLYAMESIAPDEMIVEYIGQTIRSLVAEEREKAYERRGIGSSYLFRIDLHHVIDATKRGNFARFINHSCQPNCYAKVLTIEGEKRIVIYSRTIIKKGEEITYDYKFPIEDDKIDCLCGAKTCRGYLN
UniProt O17695: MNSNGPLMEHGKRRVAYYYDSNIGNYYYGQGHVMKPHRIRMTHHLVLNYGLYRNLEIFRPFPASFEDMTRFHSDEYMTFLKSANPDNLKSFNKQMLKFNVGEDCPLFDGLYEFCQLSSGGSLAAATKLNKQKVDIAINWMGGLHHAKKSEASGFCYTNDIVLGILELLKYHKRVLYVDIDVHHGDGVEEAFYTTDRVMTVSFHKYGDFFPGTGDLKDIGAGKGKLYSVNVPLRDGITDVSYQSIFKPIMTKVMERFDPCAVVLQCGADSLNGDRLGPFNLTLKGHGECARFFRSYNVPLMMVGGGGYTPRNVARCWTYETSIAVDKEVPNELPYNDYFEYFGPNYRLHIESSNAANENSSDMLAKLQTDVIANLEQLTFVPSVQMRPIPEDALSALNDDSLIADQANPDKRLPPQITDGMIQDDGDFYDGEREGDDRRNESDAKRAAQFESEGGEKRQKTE


How the values were obtained:
[1] = biological target: T1, CFP-1::GFP (C. elegans); test: affinity purification with mass spectrometry
[2] = biological target: HA::WDR-5.1 (C. elegans) (UniProt Q17963); test: affinity purification with mass spectrometry

| Molecule | binding [1] | binding [2] |
| --- | --- | --- |
| SIN-3 (from UniProt A5JYW9 1-1507) | binds | binds |
| SET-2 (from UniProt Q18221 1-1507) | binds | binds |
| HDA-1 (from UniProt O17695 1-461) | binds | binds |
| RBBP-5 (protein, UniProt Q09309 1-454) MVEILDRTYGAQFPEELECHLDLQNASANCCKFNRWGSIVAVGCTDGRVLIYDFMTRNIARTFSAHCLPVSCLSWSRDGRKLLTSSADNSIAMFDVLAGTLLHRIRFNSMVTFAMFHPRNDNKAIVLQVNKQPTVEQFSPRIQTVLANDTPGSSDESASCVSYDRKGKYIIAGTGKGKLLIYNAETLKCVAWCKQNTVQQIRQIIVPMKSRFIITNTQDRVIRTYELEDLLHQRGQMVEAKYKVLDMVNKAAWKNVCTDSDGLYVCGASTKAHSLYIWESNTGSLIKILHGNKGEALLDVQWHPTRPIILSIAQGTVSMWTQAHVENWSAFAPEFQELEENEKYIEKENEFDMEDEDADEDMTSKSQDAEDDIIDVVNVRPEDYLASSDEEDCNIMKPARNLESGPLWYIPVPLDIENADNDQRLPDDIRNLDNLLNPAWVASAKGYELSPKSK | binds | binds |
| ASH-2 (protein, UniProt G5EFZ3 1-570) MRSSKGGRGRQAAPKTAPTTVCYCDGKRELGSVEVVCSTCLKWFHGRCLKEFHELNSNGVPFMICYTFTCKQCRPTAEDWKAKKADLVQMCVTVLATLSAERLKADGKLSAEHVPEDFTYLSLKDEIVPYMNENWYMLTAIKQKKEWHQNLAPTLLKEKNIFVQHNDDDDLFALAEKNLSLLGPLHEAVKLIGKRPIERENREPRHIELPPIEGPKTRGASKRRHAEAPVTGKKQKLAADYSSTAAPNGVQIDIPFSKDNYRYYLTEVDPNVPEDPAWNQNQSSAYVIPSFHYRELLNPTVNVSSNDRAFQLSINGNSITGFEGYSMARASHGVSKGTWYFEVNFDDQPDDSHIRIGWSQSYASLQACVGYNKFSYGWRSKHGTKFHEAKGKKYHFGGFKQGDVLGCLIHLPVDKKLQIPANLPSEKYLPVSHKGFNLISFKANYFFEVQEESADIAKTLVEMPGSYIEFFHNGKSCGKAYENIYAGAYYPSISIFKSATATMNLGPKFRNLPRGATGIHARADEQQHEQTLSDMLYLVSKEVNLDHPPRVKREDDDDVKDIKKEIKQEI | binds | binds |
| HCF-1 (protein, UniProt G5EC23 1-782) MDEDVGLEATNYSRGDESRSEEQEKNVVRWRIVQQSTGPNPKPRHGHRAVVLKELIVIFGGGNEGMIDELHAYNTQKREWTAPQCCGDVPTPAAAFGAISLGNKIYRFGGMTEYGKYTNDLYELQSTRWEWRRLNPRVHSNGHLPCPRIGHSFVVSQKSQKAYVFGGLSNDLNDPKRNVPHYLDDLYVINLSGPQHLIWEKLNATGPGPISRESHTAVIYEKDSISRMVVYGGMNGVRLGDLWYLNLNTLHWTEIKFDDPRTGIPPMPRSLHSSVLIGDKMFVYGGWVPLLEHASTEQQTEKEWKCTSSLGCWNITEDRWVPLHLYCSDEDTIPRGRAGHCAAAVGDRMYIWSGRDGYRKAWSNQVCCRDMWLLDTILPEQPGKVQLGRAGFNSLEISWPIVQGASGYFLQIGFGDAKEQSVSPIKRATTSPRKQPSIVPPSQKETEQSPKKPQGTAPSIISTQGTTYTAPADPKPATDEGGLPQDLFEDTEKNETASPKRSNDAQSADSSTCEQKKTDESGLEEDSEKDQKPSDAGETDEMKEENGDDDLPWFDVGIIDKATINVTHYFNDRQQSLEKQLNDLIDHNAFKCVNDSVFTTEDKIPLINGQSYRFRVSAINGLGKGAWSETASCKTCVPGYPSAPSSIRITKSHEGAQLTWEPPSNTNISGKIIEYSVYLAVKNQSANSADSQLAFMRVYCGPQADCQVLQSNLGTAFVDQTNKPAIIFRIAARNEKGYGPATQVRWLQDQQKIPVRTNYPNNSGFIYQQHGGQQKRARFDHQ | binds | binds |
| MRG-1 (protein, UniProt A7DTF0 1-337) MSSKKNFEVGENVACIYKGKPYDAKITDIKTNSDGKELYCVHFKGWNNRYDEKIPVGEEKDRIFKGTASEYAEKHNAELPTTALKPKKKSLAAEAPRDDRDDTPGTSKGKKAKSVTIAPVMTADDMKVELPKPLRKILIDDYDLVCRYFINIVPHEYSVDQIIEDYIKTIPVSNEQMRTVDDLLIEYEEADIKITNLALICTARGLVDYFNVTLGSSYQLLYKFERPQYNDLVKKRAMEKGIDITNPTALQDSGFRPSQEYGIVHFLRMLAKLPDYLKLTQWNDHVINRIMIGVHDLIVFLNKNHGKYYRGSSDYQGASNDYYRRSLAADDGVGANQ | binds | binds |
| SUMV-2 (protein, UniProt Q22992 1-1145) MKPGRKSLPKKNRASNITEKMPTTSTEAQSSSSKNQDRCRSFSQELGVDDEPEEQQAPVATPKQTKKAQKTAKTTEEVKSPRKSARKSELKKPEPEEKAKEPRKSASKRKSSSLMNKDEPSTSTEAPSADVPGTSEASDEASEIQEAPENPNSALAIKKRLMGGGESSKSAPTKNPPKARKSNVKKPEKEAEALAPPEPPAEPQEAAETPAPEPLVPEKKPKIEDAPTTSSPKKSTPTSAPPTRASARVSKPNRLYADGSFNTEILGRTRITEQNPVKEAQAKESTPELADLPLPAGRRKSTAAPRAPPAPKPIPVINGVLRGYIPSVKVPLAEYEVDGEIINLNEGVNETMDTILAKVCEDGVEKHEDIDPKVVKAKKLAKIDYTKRLKLQVKKLDIQMRIKIPSTPEELGKRKRQAPKTDDFYWSAQSRTKLKGSSKEREETPAFDEESPIGGDEKRQQKARESISHLFDAEMDASIKEAKKYSVSFDKYIKPKITGALKHAKIKLMSRKRQSAEPDDFYYHELLVDQVSPSNSNVENVDVDVDIEETDDKVDPTEFEISEEGVIGIRDEAVDMAEQIALVIPRPTKHDGSPMSMDEIQMRAMEHVESRTKCLDGSLEIVLNQLGHEMAPPTRGVEEQGCQWHTVTSANAQALKNLYTIANNCTEDAITWTHQFMIENLEVHMLASYLSILKYAKRLNSSRFGYVISSTDQLDPEWTQVTSLLKSFVYKRHTEPGTEVLNNTIPYHRMTDTVFLLVPPTLTFGDHQRAPPRHHARIFRWLQSIGHQDSEFISFDEDIDATCSVAEYLSDVIVERICDKVRQKNKYRPNCNVVLVGYGASTYLIHRAANLVEGISAIISIGFPVMTSLGRRGTADDEILLTYCPTLFIVGAEGRRFNNEAITELRTSMISPSGLVVVGHSNDMILVPTSMLLRLGISQTVVFRMVLEKILDFLNLEPVRQQEFADLVPIELNNVFDLDSALLKSDKALSGLAFASSTHSASSSAAPSPVGASGRRATVTGAGSEDIAKRRKESIILSQQIAAPSISGPPPPAPSPRTEDRFLAFQNLVASTITTGDDMPRRASMGASPRVIERGDFRDHRPPPPPPLPILQNPVATPMSQQPPLPSPAPPPPRGPVDPASISLI |  | binds |
